Experimental data published in US7056947B2 (Georgia Tech Research Corp., priority 2002, dated 2006).

Assay: general procedure: solution-phase peptide synthesis; EDC/HOBt; pentafluorophenol/DCC; mixed anhydride (IBCF/NMM)
Details: coupling step

Substance | step yield
Cbz-Leu-Glu(O-tBu)-Thr-AAsp(O-tBu)-(2S,3S)-EP-CON(CH3)Bzl | yield 53%
Cbz-Leu-Glu(O-tBu)-Thr-AAsp(O-tBu)-(2S,3S)-EP-CON(Bzl)2 | yield 41%
PhPr-Val-Ala-AAsp(O-tBu)-(2S,3S)-EP-CO-Tyr-NH2 | yield 50%
Cbz-Ile-Glu(O-tBu)-Thr-AAsp(O-tBu)-(2S,3S)-EP-CO-Ala-NHBzl | yield 36%
Cbz-Glu(O-tBu)-Val-AAsp(O-tBu)-(2R,3R)-EP-CO-Phe-NH2 | yield 32%
Cbz-Asp(O-tBu)-Glu(O-tBu)-Val-AAsp(O-tBu)-(2R,3R)-EP-COOEt | yield 57%
Cbz-Ile-Glu(O-tBu)-Thr-AAsp(O-tBu)-(2R,3R)-EP-COOEt | yield 43%
Cbz-Ile-Glu(O-tBu)-Thr-AAsp(O-tBu)-(2R,3R)-EP-CONHCH2Ph | yield 47%
Cbz-Leu-Glu(O-tBu)-Thr-AAsp(O-tBu)-(2S,3S)-EP-COOCH2Ph | yield 44%
Cbz-Ile-Glu(O-tBu)-Thr-AAsp(O-tBu)-(2R,3R)-EP-COOCH2Ph | yield 37%
PhPr-Val-Ala-AAsp(O-tBu)-(2S,3S)-EP-CO-Ala-NHBzl | yield 41%
Cbz-Ile-Glu(O-tBu)-Thr-AAsp(O-tBu)-(2S,3S)-EP-COOCH2Ph | yield 38%
Cbz-Leu-Glu(O-tBu)-Thr-AAsp(O-tBu)-(2S,3S)-EP-CONHCH2CH2Ph | yield 52%
Cbz-Leu-Glu(O-tBu)-Thr-AAsp(O-tBu)-(2S,3S)-EP-CO-Ala-NHBzl | yield 42%
PhPr-Val-Ala-AAsp(O-tBu)-(2R,3R)-EP-CO-Leu-NH2 | yield 64%
Cbz-Leu-Glu(O-tBu)-Thr-AAsp(O-tBu)-(2R,3R)-EP-COOEt | yield 16%
Cbz-Asp(O-tBu)-Glu(O-tBu)-Val-AAsp(O-tBu)-(2S,3S)-EP-COOEt | yield 58%
Cbz-Leu-Glu(O-tBu)-Thr-AAsp(O-tBu)-(2S,3S)-EP-COOEt | yield 44%
Cbz-Ile-Glu(O-tBu)-Thr-AAsp(O-tBu)-(2S,3S)-EP-CO—N(BzI)2 | yield 37%
Cbz-Ile-Glu(O-tBu)-Thr-AAsp(O-tBu)-(2S,3S)-EP-COOEt | yield 37%
Cbz-Asp(O-tBu)-Glu(O-tBu)-Val-AAsp(O-tBu)-(2S,3S)-EP-CONHCH2Ph | yield 31%
Cbz-Asp(O-tBu)-Glu(O-tBu)-Val-AAsp(O-tBu)-(2S,3S)-EP-COOCH2Ph | yield 23%
PhPr-Val-Ala-AAsp(O-tBu)-(2R,3R)-EP-CO-Phe-NH2 | yield 56%
PhPr-Val-Ala-AAsp(O-tBu)-(2S,3S)-EP-CO-Leu-NH2 | yield 23%
PhPr-Val-Ala-AAsp(O-tBu)-(2R,3R)-EP-CO-Ala-NHBzl | yield 50%
Cbz-Ile-Glu(O-tBu)-Thr-AAsp(O-tBu)-(2S,3S)-EP-CO—N(CH3)Bzl | yield 42%
PhPr-Val-Ala-AAsp(O-tBu)-(2S,3S)-EP-CO-Phe-NH2 | yield 39%
Cbz-Ala-Ala-AAsn-(2R,3R)-EP-CO-Ala-NHBzl | yield 4%
